{"source": "the supplement of paper PMC10077471", "note": "Whole data set: some 1,900 compounds, median “excess over highest single agent (ExcessHSA) synergy score, 6x6 matrix” near -83, cut for the lowest 2% near -370. The list shows a part of the results.", "data": [{"system": "NCI-H446", "experiment": "excess over highest single agent (ExcessHSA) synergy score, 6x6 matrix; higher = less synergy (more negative = stronger synergy)", "conditions": "72 h; CellTiter-Glo viability", "values": [{"compound": "COC1=C[C@@H]2[C@@H]3Cc4ccc(OC)c(O)c4[C@]2(CCN3C)CC1=O", "note": "+ Cc1sc2c(c1C)C(c1ccc(Cl)cc1)=N[C@@H](CC(=O)OC(C)(C)C)c1nnc(C)n1-2 [NCGC00250412-19]", "excess over highest single agent": -139}, {"compound": "C/C(=C\\c1csc(C)n1)[C@@H]1C[C@@H]2O[C@@H]2CCC[C@H](C)[C@H](O)[C@@H](C)C(=O)C(C)(C)[C@@H](O)CC(=O)O1", "note": "+ Cc1sc2c(c1C)C(c1ccc(Cl)cc1)=N[C@@H](CC(=O)OC(C)(C)C)c1nnc(C)n1-2 [NCGC00250412-19]", "excess over highest single agent": -151}, {"compound": "CC1(C)O[C@@H]2C[C@H]3[C@@H]4C[C@H](F)C5=CC(=O)C=C[C@]5(C)[C@@]4(F)[C@@H](O)C[C@]3(C)[C@]2(C(=O)CO)O1", "note": "+ Cc1sc2c(c1C)C(c1ccc(Cl)cc1)=N[C@@H](CC(=O)OC(C)(C)C)c1nnc(C)n1-2 [NCGC00250412-19]", "excess over highest single agent": -20.1}, {"compound": "COC(=O)C1=CO[C@@H](O)[C@@H]2C(CO)=CC[C@H]12", "note": "+ Cc1sc2c(c1C)C(c1ccc(Cl)cc1)=N[C@@H](CC(=O)OC(C)(C)C)c1nnc(C)n1-2 [NCGC00250412-19]", "excess over highest single agent": -24.6}, {"compound": "Cc1nc(C(=O)NCC(=O)O)c(O)c2ccc(Oc3ccccc3)cc12", "note": "+ Cc1sc2c(c1C)C(c1ccc(Cl)cc1)=N[C@@H](CC(=O)OC(C)(C)C)c1nnc(C)n1-2 [NCGC00250412-19]", "excess over highest single agent": -115}, {"compound": "COc1cccc2c1C(=O)c1c(O)c3c(c(O)c1C2=O)C[C@@](O)(C(=O)CO)C[C@@H]3O[C@H]1C[C@H](N)[C@H](O[C@@H]2CCCCO2)[C@H](C)O1", "note": "+ Cc1sc2c(c1C)C(c1ccc(Cl)cc1)=N[C@@H](CC(=O)OC(C)(C)C)c1nnc(C)n1-2 [NCGC00250412-19]", "excess over highest single agent": -345}, {"compound": "CCCCCCNC(=O)n1cc(F)c(=O)[nH]c1=O", "note": "+ Cc1sc2c(c1C)C(c1ccc(Cl)cc1)=N[C@@H](CC(=O)OC(C)(C)C)c1nnc(C)n1-2 [NCGC00250412-19]", "excess over highest single agent": 124}, {"compound": "Nc1nc(=O)n([C@@H]2CS[C@H](CO)O2)cc1F", "note": "+ Cc1sc2c(c1C)C(c1ccc(Cl)cc1)=N[C@@H](CC(=O)OC(C)(C)C)c1nnc(C)n1-2 [NCGC00250412-19]", "excess over highest single agent": -92.3}, {"compound": "CC[C@@H]1C(=O)N(C)c2cnc(Nc3ccc(C(=O)N[C@H]4CC[C@H](N5CCN(CC6CC6)CC5)CC4)cc3OC)nc2N1C(C)C", "note": "+ Cc1sc2c(c1C)C(c1ccc(Cl)cc1)=N[C@@H](CC(=O)OC(C)(C)C)c1nnc(C)n1-2 [NCGC00250412-19]", "excess over highest single agent": -192}, {"compound": "CCc1cccc(CC)c1NC(=O)N1Cc2[nH]nc(NC(=O)c3ccc(N4CCN(C)CC4)cc3)c2C1", "note": "+ Cc1sc2c(c1C)C(c1ccc(Cl)cc1)=N[C@@H](CC(=O)OC(C)(C)C)c1nnc(C)n1-2 [NCGC00250412-19]", "excess over highest single agent": -268}, {"compound": "CC#C[C@]1(O)CC[C@H]2[C@@H]3CCC4=CC(=O)CCC4=C3[C@@H](c3ccc(N(C)C)cc3)C[C@@]21C", "note": "+ Cc1sc2c(c1C)C(c1ccc(Cl)cc1)=N[C@@H](CC(=O)OC(C)(C)C)c1nnc(C)n1-2 [NCGC00250412-19]", "excess over highest single agent": -18.1}, {"compound": "CN(C)CCc1ccc(O)cc1", "note": "+ Cc1sc2c(c1C)C(c1ccc(Cl)cc1)=N[C@@H](CC(=O)OC(C)(C)C)c1nnc(C)n1-2 [NCGC00250412-19]", "excess over highest single agent": -69.9}, {"compound": "CCOC(=O)C1=C(N)Oc2ccc(Br)cc2C1C(C#N)C(=O)OCC", "note": "(stereo not drawn) + Cc1sc2c(c1C)C(c1ccc(Cl)cc1)=N[C@@H](CC(=O)OC(C)(C)C)c1nnc(C)n1-2 [NCGC00250412-19]", "excess over highest single agent": -121}, {"compound": "Cc1ccc(S(=O)(=O)Nc2nc3ccccc3nc2Nc2ccc3nsnc3c2)cc1", "note": "+ Cc1sc2c(c1C)C(c1ccc(Cl)cc1)=N[C@@H](CC(=O)OC(C)(C)C)c1nnc(C)n1-2 [NCGC00250412-19]", "excess over highest single agent": -88.8}, {"compound": "C/C=C(/C)C(=O)O[C@H]1C(C)=C[C@]23C(=O)[C@@H](C=C(CO)[C@@H](O)[C@]12O)[C@H]1[C@@H](C[C@H]3C)C1(C)C", "note": "+ Cc1sc2c(c1C)C(c1ccc(Cl)cc1)=N[C@@H](CC(=O)OC(C)(C)C)c1nnc(C)n1-2 [NCGC00250412-19]", "excess over highest single agent": 104}, {"compound": "CC(C)C(=O)Nc1ncc(-c2cc(C(F)F)nn2-c2c(Cl)cccc2Cl)s1", "note": "+ Cc1sc2c(c1C)C(c1ccc(Cl)cc1)=N[C@@H](CC(=O)OC(C)(C)C)c1nnc(C)n1-2 [NCGC00250412-19]", "excess over highest single agent": -105}, {"compound": "CC(C)Oc1ccc2c(=O)c(-c3ccccc3)coc2c1", "note": "+ Cc1sc2c(c1C)C(c1ccc(Cl)cc1)=N[C@@H](CC(=O)OC(C)(C)C)c1nnc(C)n1-2 [NCGC00250412-19]", "excess over highest single agent": -14}, {"compound": "CCCCOc1ccc(C(=O)Nc2ccc(F)cc2F)cc1", "note": "+ Cc1sc2c(c1C)C(c1ccc(Cl)cc1)=N[C@@H](CC(=O)OC(C)(C)C)c1nnc(C)n1-2 [NCGC00250412-19]", "excess over highest single agent": -60.1}, {"compound": "Cc1cc2cc3c(C)cc(=O)oc3c(C)c2o1", "note": "+ Cc1sc2c(c1C)C(c1ccc(Cl)cc1)=N[C@@H](CC(=O)OC(C)(C)C)c1nnc(C)n1-2 [NCGC00250412-19]", "excess over highest single agent": -28.3}, {"compound": "Clc1ccc2nsnc2c1NC1=NCCN1", "note": "+ Cc1sc2c(c1C)C(c1ccc(Cl)cc1)=N[C@@H](CC(=O)OC(C)(C)C)c1nnc(C)n1-2 [NCGC00250412-19]", "excess over highest single agent": -131}, {"compound": "Cc1cc(Nc2cc(N3CCN(C)CC3)nc(Sc3ccc(NC(=O)C4CC4)cc3)n2)n[nH]1", "note": "+ Cc1sc2c(c1C)C(c1ccc(Cl)cc1)=N[C@@H](CC(=O)OC(C)(C)C)c1nnc(C)n1-2 [NCGC00250412-19]", "excess over highest single agent": -312}, {"compound": "Cc1cc(C(C)Nc2ccccc2)c2nc(N3CCOCC3)cc(=O)n2c1", "note": "(stereo not drawn) + Cc1sc2c(c1C)C(c1ccc(Cl)cc1)=N[C@@H](CC(=O)OC(C)(C)C)c1nnc(C)n1-2 [NCGC00250412-19]", "excess over highest single agent": -241}, {"compound": "NC1(Cc2ccc(Cl)cc2)CCN(c2ncnc3[nH]ccc23)CC1", "note": "+ Cc1sc2c(c1C)C(c1ccc(Cl)cc1)=N[C@@H](CC(=O)OC(C)(C)C)c1nnc(C)n1-2 [NCGC00250412-19]", "excess over highest single agent": -66}, {"compound": "COc1cc(CNC(=O)CCCC/C=C/C(C)C)ccc1O", "note": "+ Cc1sc2c(c1C)C(c1ccc(Cl)cc1)=N[C@@H](CC(=O)OC(C)(C)C)c1nnc(C)n1-2 [NCGC00250412-19]", "excess over highest single agent": -7.24}, {"compound": "Clc1ccc(C2(c3ccc(-c4cn[nH]c4)cc3)CCNCC2)cc1", "note": "+ Cc1sc2c(c1C)C(c1ccc(Cl)cc1)=N[C@@H](CC(=O)OC(C)(C)C)c1nnc(C)n1-2 [NCGC00250412-19]", "excess over highest single agent": -22.4}, {"compound": "O=C(O)CCCCCC(=O)NN=C1CCCC1", "note": "+ Cc1sc2c(c1C)C(c1ccc(Cl)cc1)=N[C@@H](CC(=O)OC(C)(C)C)c1nnc(C)n1-2 [NCGC00250412-19]", "excess over highest single agent": 16.4}, {"compound": "C[C@]12CC[C@@H]3c4ccc(O)cc4C[C@@H](CCCCCCCCC[S+]([O-])CCCC(F)(F)C(F)(F)F)[C@H]3[C@@H]1CC[C@@H]2O", "note": "(stereo partly drawn) + Cc1sc2c(c1C)C(c1ccc(Cl)cc1)=N[C@@H](CC(=O)OC(C)(C)C)c1nnc(C)n1-2 [NCGC00250412-19]", "excess over highest single agent": -75.5}, {"compound": "COC1CCC(C(=O)c2ccc3nc4c(cc3c2)CCCO4)CC1", "note": "(stereo not drawn) + Cc1sc2c(c1C)C(c1ccc(Cl)cc1)=N[C@@H](CC(=O)OC(C)(C)C)c1nnc(C)n1-2 [NCGC00250412-19]", "excess over highest single agent": -20.6}, {"compound": "NC(=O)C1CCCc2c1[nH]c1ccc(Cl)cc21", "note": "(stereo not drawn) + Cc1sc2c(c1C)C(c1ccc(Cl)cc1)=N[C@@H](CC(=O)OC(C)(C)C)c1nnc(C)n1-2 [NCGC00250412-19]", "excess over highest single agent": -52.9}, {"compound": "COC(=O)[C@H](Cc1ccccc1)NC(=O)[C@@H](N)CC(=O)O", "note": "+ Cc1sc2c(c1C)C(c1ccc(Cl)cc1)=N[C@@H](CC(=O)OC(C)(C)C)c1nnc(C)n1-2 [NCGC00250412-19]", "excess over highest single agent": -46.3}, {"compound": "CCS(=O)(=O)c1cccc(-c2cc(C(=O)NC3CCN(C)CC3)c(C)c3[nH]c4ncc(C)cc4c23)c1", "note": "+ Cc1sc2c(c1C)C(c1ccc(Cl)cc1)=N[C@@H](CC(=O)OC(C)(C)C)c1nnc(C)n1-2 [NCGC00250412-19]", "excess over highest single agent": -197}, {"compound": "OCCn1cc(-c2ccc3c(c2)CC/C3=N\\O)c(-c2ccncc2)n1", "note": "+ Cc1sc2c(c1C)C(c1ccc(Cl)cc1)=N[C@@H](CC(=O)OC(C)(C)C)c1nnc(C)n1-2 [NCGC00250412-19]", "excess over highest single agent": -137}, {"compound": "N#Cc1c(N(CC(=O)O)CC(=O)O)sc(C(=O)O)c1CC(=O)O", "note": "+ Cc1sc2c(c1C)C(c1ccc(Cl)cc1)=N[C@@H](CC(=O)OC(C)(C)C)c1nnc(C)n1-2 [NCGC00250412-19]", "excess over highest single agent": -47.5}, {"compound": "CC[C@H]1OC(=O)[C@H](C)[C@@H](O[C@H]2C[C@@](C)(OC)[C@@H](O)[C@H](C)O2)[C@H](C)[C@@H](O[C@@H]2O[C@H](C)C[C@H](N(C)C)[C@H]2O)[C@](C)(O)C[C@@H](C)CN(C)[C@H](C)[C@@H](O)[C@]1(C)O", "note": "+ Cc1sc2c(c1C)C(c1ccc(Cl)cc1)=N[C@@H](CC(=O)OC(C)(C)C)c1nnc(C)n1-2 [NCGC00250412-19]", "excess over highest single agent": -39.5}, {"compound": "CCOC(=O)C1=C(C)NC(=S)NC1c1cccc(O)c1", "note": "(stereo not drawn) + Cc1sc2c(c1C)C(c1ccc(Cl)cc1)=N[C@@H](CC(=O)OC(C)(C)C)c1nnc(C)n1-2 [NCGC00250412-19]", "excess over highest single agent": -88.8}, {"compound": "O=C(O)c1cccc(-c2noc(-c3ccccc3F)n2)c1", "note": "+ Cc1sc2c(c1C)C(c1ccc(Cl)cc1)=N[C@@H](CC(=O)OC(C)(C)C)c1nnc(C)n1-2 [NCGC00250412-19]", "excess over highest single agent": -23.4}, {"compound": "CC(C)[N+]1(C)[C@@H]2CC[C@H]1C[C@@H](OC(=O)C(CO)c1ccccc1)C2", "note": "(stereo partly drawn) + Cc1sc2c(c1C)C(c1ccc(Cl)cc1)=N[C@@H](CC(=O)OC(C)(C)C)c1nnc(C)n1-2 [NCGC00250412-19]", "excess over highest single agent": 17.3}, {"compound": "Cc1ccc(-c2cc(C(F)(F)F)nn2-c2ccc(S(N)(=O)=O)cc2)cc1", "note": "+ Cc1sc2c(c1C)C(c1ccc(Cl)cc1)=N[C@@H](CC(=O)OC(C)(C)C)c1nnc(C)n1-2 [NCGC00250412-19]", "excess over highest single agent": -197}]}]}
